Source: patent US11339175B2, “Thiol-based fluorescent probe for reactive species” (The Board of Trustees of the University of Illinois, priority 2018, dated 2022)

Test system: MDA-MB-231 cells
Experiment: Subcellular localization, co-incubation with LysoTracker Red
Assay type: cell-based, human

In the case of `CC(C)(S)C(=O)Oc1c(Cl)cc2c(c1Cl)Oc1cc(O)ccc1C21OCc2ccccc21` (centres unmarked) [NitroxylFluor], the subcellular localization (MDA-MB-231 cells) is reported as “lysosomal” and the “Pearson's Coefficient of overlap with LysoTracker Red” value (after Angeli's salt treatment (250 μM), roughly 5 minutes at 25° C., n=5) is reported as 0.932±0.01.
